Results deposited as PubChem BioAssay AID1259254 (NCATS, 2017).
The deposit covers about 59,000 reagents; this is a part drawn at random. Of all reagents, about 1,550 (2.6%) got an active call. 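G2 share is only a proxy for re-replication; each gene was hit by three separate siRNAs, and active genes were retested.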 Unmarked entries are inactive. The numbers tell different reagents against one gene apart. Not all columns of the deposit are shown. The record does not give: the amount of reagent.

- Aim: 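Finding genes that stop cells copying their DNA twice in one cycle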 (primary screen)
- System: human HCT116 colorectal cancer cells
- Knock-down reagent: single siRNA against human genes
- Duration: 3 days
- Detection: 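Nuclei stained with Hoechst and imaged; cell-cycle phase assigned by DNA content; G2 share scaled per plate, non-targeting siRNA 0%, GMNN siRNA 100%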
- Scale: G2 robust z-score: higher = more G2 cells, more excess DNA replication
- Active means: 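Active siRNAs have a G2 robust z of 5 or more median absolute deviations over the median, which in these data means about 38% or higher of GMNN control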

G2 robust z-score, by target gene and reagent
LMCD1 (GeneID 29995): #1 1.61; #2 -0.915; #3 -0.823
RELCH (GeneID 57614): #1 -0.342; #2 -0.902; #3 4.28
SLU7 (GeneID 10569): #1 1.53; #2 2.39; #3 1.18
SRSF3 (GeneID 6428): #1 0.0742; #2 6.75 (active); #3 4.39
CXCL13 (GeneID 10563): #1 0.126; #2 -0.272; #3 -0.55
ZNF292 (GeneID 23036): #1 -0.361; #2 2.6; #3 4.53
NAE1 (GeneID 8883): #1 -0.107; #2 0.474; #3 3.52
USP25 (GeneID 29761): #1 3.36; #2 0.554; #3 0.336
RASSF9 (GeneID 9182): #1 -0.805; #2 -0.987; #3 0.863
WNT4 (GeneID 54361): #1 1.61; #2 0.425; #3 -0.558
GGNBP2 (GeneID 79893): #1 0.883; #2 -0.156; #3 1.28
DECR2 (GeneID 26063): #1 1.44; #2 4.27; #3 -1.21
PRSS36 (GeneID 146547): #1 1.38; #2 -0.396; #3 1.56
NFKBIE (GeneID 4794): #1 -0.127; #2 -0.934; #3 -0.291
LDLRAD1 (GeneID 388633): #1 0.826; #2 1.14; #3 -0.851
VPS26A (GeneID 9559): #1 -0.523; #2 -0.0432; #3 -0.254
PHETA2 (GeneID 150368): #1 -0.42; #2 -0.468; #3 -1.11
METRN (GeneID 79006): #1 -0.223; #2 -0.599; #3 1.27
IFT20 (GeneID 90410): #1 -0.644; #2 0.0993; #3 0.307
MAPDA (GeneID 161823): #1 0.578; #2 -1.15; #3 0.113
OR13J1 (GeneID 392309): #1 -0.804; #2 -0.103; #3 -0.262
UFL1 (GeneID 23376): #1 -0.435; #2 -0.347; #3 4.92
GPR3 (GeneID 2827): #1 -0.567; #2 0.899; #3 0.87
